The supplement of paper PMC9454738
Where a name gives a salt, the structure may show the parent alone. Some of the results follow. Single values are uncertain here, since repeats match poorly.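 Test systems: triple-negative MDA-MB-231 breast cancer cells and their brain-metastatic MDA-MB-231BRM derivative, each stably carrying empty vector, full-length GLI1 or truncated tGLI1. Viability after 48 h was read by CellTiter-Blue and expressed against 1% DMSO vehicle. A compound was tGLI1-selective if it lowered viability 20% more in tGLI1 cells than in vector and GLI1 cells.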

Experiments:
Assay in all cases: cell viability relative to vehicle (DMSO) control (fraction); higher = more viable cells (less growth inhibition)
Conditions in all cases: treatment time 48 h
[1] = tested on: MDA-MB-231 GLI1
[2] = tested on: MDA-MB-231 Vector
[3] = tested on: MDA-MB-231 tGLI1
[4] = tested on: MDA-MB-231BRM GLI1
[5] = tested on: MDA-MB-231BRM Vector
[6] = tested on: MDA-MB-231BRM tGLI1

Row | SMILES | cell viability ([1]; 0.05 µM) | cell viability ([1]; 0.5 µM) | cell viability ([1]; 5 µM) | cell viability ([2]; 0.05 µM) | cell viability ([2]; 0.5 µM) | cell viability ([2]; 5 µM) | cell viability ([3]; 0.05 µM) | cell viability ([3]; 0.5 µM) | cell viability ([3]; 5 µM) | cell viability ([4]; 0.05 µM) | cell viability ([4]; 0.5 µM) | cell viability ([4]; 5 µM) | cell viability ([5]; 0.05 µM) | cell viability ([5]; 0.5 µM) | cell viability ([5]; 5 µM) | cell viability ([6]; 0.05 µM) | cell viability ([6]; 0.5 µM) | cell viability ([6]; 5 µM)
1 | O=c1cc(-c2cccc3c2Sc2ccccc2S3)oc(N2CCOCC2)c1 | 1.44 | 1.74 | 1.04 | 1.39 | 1.27 | 0.849 | 1.2 | 1.39 | 0.987 | 0.953 | 1.01 | 0.908 | 0.7 | 0.905 | 0.888 | 0.949 | 0.936 | 0.957
2 | CCn1c2ccccc2c2cc(Nc3ccnc(NCCCN4CCOCC4)n3)ccc21 | 1.16 | 1.48 | -0.06 | 1.2 | 1.55 | -0.0567 | 1.43 | 1.4 | 0.0951 | 0.943 | 0.915 | 0.779 | 1.11 | 0.945 | 0.806 | 0.949 | 0.925 | 0.769
3 | C[C@]12C=CC(=O)N[C@@H]1CC[C@@H]1[C@@H]2CC[C@]2(C)[C@@H](C(=O)Nc3cc(C(F)(F)F)ccc3C(F)(F)F)CC[C@@H]12 [Dutasteride] | 1.04 | 1.05 | 1.02 | 0.894 | 1.12 | 1.08 | 1.14 | 1.03 | 0.914 | 1.01 | 1.01 | 0.988 | 1.03 | 0.987 | 0.948 | 1.11 | 1.02 | 0.939
4 | O=C(O)c1ccc(Nc2ncc3c(n2)-c2ccc(Cl)cc2C(c2c(F)cccc2F)=NC3)cc1 | 1.31 | 1.59 | 0.852 | 1.5 | 0.947 | 0.725 | 1.24 | 1.19 | 0.704 | 0.968 | 1.02 | 0.95 | 1.05 | 0.93 | 1.02 | 1.03 | 0.98 | 0.936
5 | O=C1NC(=O)C(c2cnc3ccccn23)=C1c1cn2c3c(cc(F)cc13)CN(C(=O)N1CCCCC1)CC2 | 0.837 | 1.27 | 0.909 | 0.861 | 1.17 | 0.658 | 0.801 | 1.21 | 1.11 | 1.01 | 1.08 | 0.978 | 1.12 | 1.13 | 1.03 | 1.13 | 1.06 | 1.06
6 | CCOc1cc(C(=O)N2CCC(N3CCN(C)CC3)CC2)ccc1Nc1ncc2c(n1)N(C1CCCC1)c1ccccc1C(=O)N2C | 1.37 | 1.09 | 0.41 | 1.17 | 1.01 | 0.495 | 1.37 | 1.13 | 0.415 | 1.09 | 0.959 | 0.977 | 0.974 | 1.03 | 0.926 | 1.04 | 1.04 | 0.915
7 | CCn1c(=O)c(-c2ccc(-c3cncs3)cc2Cl)cc2cnc(Nc3ccc(N4CCN(C)CC4)cc3)nc21 | 1.25 | 1.01 | 0.692 | 0.896 | 0.899 | 0.576 | 1.14 | 0.733 | 0.158 | 0.901 | 0.873 | 1.01 | 1.06 | 0.975 | 1.19 | 1.01 | 0.918 | 1.22
8 | COc1cccc2c1C(=O)c1c(O)c3c(c(O)c1C2=O)C[C@@](O)(C(=O)CO)C[C@@H]3O[C@H]1C[C@H](N)[C@@H](O)[C@H](C)O1 [Epirubicin HCl] | 0.676 | 0.0422 | -0.127 | 0.764 | -0.198 | -0.349 | 0.462 | -0.0484 | -0.217 | 1.04 | 0.0981 | -0.0563 | 1.06 | 0.114 | -0.0409 | 1.05 | 0.123 | -0.0422
9 | Cc1cc(NC(=O)c2cccc(NC(=O)/C=C/CN(C)C)c2)ccc1Nc1nccc(-c2cccnc2)n1 | 1.46 | 1.57 | 0.478 | 1.28 | 1.36 | 0.721 | 1.31 | 1.37 | 0.475 | 0.997 | 0.903 | 0.827 | 1.05 | 0.948 | 0.808 | 0.984 | 0.904 | 0.728
10 | N#CCNC(=O)c1ccc(-c2ccnc(Nc3ccc(N4CCOCC4)cc3)n2)cc1 | 1.39 | 1.36 | 0.755 | 0.835 | 1.2 | 0.464 | 1.25 | 0.833 | 0.479 | 1.13 | 1.14 | 1.05 | 0.721 | 1.1 | 1.01 | 0.504 | 0.733 | 0.918
11 | Oc1c2ccccc2c2c3c(cccc13)N=N2 | 1.39 | 1.56 | 1.51 | 2.01 | 1.36 | 1.27 | 1.23 | 1.32 | 1.21 | 1.14 | 1.2 | 0.845 | 0.781 | 1.12 | 0.945 | 1 | 1.15 | 0.912
12 | CCc1cc(Nc2nccc(-c3c(-c4ccc(OC)c(C(=O)Nc5c(F)cccc5F)c4)nc4ccccn34)n2)c(OC)cc1N1CCC(N2CCN(S(C)(=O)=O)CC2)CC1 | 0.957 | 1.44 | 0.855 | 1.1 | 1.2 | 0.874 | 1.41 | 1.37 | 0.833 | 0.907 | 0.881 | 0.844 | 0.924 | 0.842 | 0.785 | 0.936 | 0.846 | 0.773
13 | COc1ccc(Cl)cc1NC(=O)Nc1cc(C)nc2ccccc12 | 1.23 | 1.86 | 1.04 | 0.66 | 0.603 | 0.492 | 0.725 | 0.774 | 0.642 | 0.447 | 0.422 | 0.204 | 0.58 | 0.525 | 0.229 | 0.745 | 0.605 | 0.45
14 | Cc1ccc2nc(NCCN)c3ncc(C)n3c2c1 | 2.37 | 3.19 | 0.38 | 1.22 | 1.11 | 0.128 | 1.36 | 1.44 | 0.128 | 0.805 | 0.797 | 0.69 | 0.913 | 0.771 | 0.746 | 0.942 | 1.16 | 0.98
15 | O=C(Nc1ccc(-c2ccnc(Nc3ccc(N4CCOCC4)cc3)n2)cc1)C1CCCN1 (stereo unspecified) | 1.31 | 1.82 | 1.12 | 1.42 | 1.48 | 1.45 | 1.34 | 1.49 | 1.5 | 1.01 | 0.95 | 0.998 | 0.998 | 1.04 | 1.02 | 1.01 | 1.03 | 1.01
16 | CC(C)(C#N)c1ccc(N2C(=O)OCc3cnc4ccc(-c5cnc6ccccc6c5)cc4c32)cc1 | 1.12 | 0.887 | 0.278 | 0.669 | 0.364 | 0.0378 | 0.55 | 0.388 | 0.075 | 0.592 | 0.463 | 0.483 | 0.533 | 0.448 | 0.445 | 0.73 | 0.613 | 0.734
17 | CCC(=O)Nc1cccc(Oc2nc(Nc3ccc(N4CCN(C)CC4)cc3OC)ncc2Cl)c1 | 1.08 | 1.47 | 0.607 | 0.969 | 0.993 | 0.367 | 0.988 | 1.28 | 0.811 | 0.898 | 1 | 0.98 | 1.03 | 0.985 | 0.961 | 0.983 | 0.989 | 0.927
18 | C[C@]1(O)C[C@@H](c2nc(-c3ccc4ccc(-c5ccccc5)nc4c3)c3c(N)nccn32)C1 [OSI-906 (Linsitinib)] | 1.46 | 1.41 | 1.03 | 1.29 | 1.2 | 0.699 | 1.24 | 1.35 | 0.735 | 0.922 | 1 | 0.982 | 0.927 | 0.985 | 0.9 | 0.987 | 0.891 | 0.91
19 | Cc1cnc(NC(=O)Nc2cc(Br)c(C)cc2OC[C@@H]2CNCCO2)cn1 | 1.18 | 1.23 | 0.115 | 1.27 | 1.1 | 0.292 | 1.29 | 1.26 | 0.164 | 1.01 | 1.13 | 1.12 | 1.04 | 1.06 | 1.14 | 1.05 | 1.14 | 1.05
20 | CCCS(=O)(=O)Nc1ccc(F)c(C(=O)c2c[nH]c3ncc(Cl)cc23)c1F | 1.48 | 1.75 | 1.3 | 1.38 | 1.33 | 1.09 | 1.33 | 1.64 | 1.09 | 0.996 | 0.999 | 0.97 | 1.03 | 0.968 | 0.951 | 0.948 | 0.96 | 0.975
21 | O=C(O)CCC(=O)Nc1ccc(Br)cn1 [Bikinin] | 1.25 | 1.72 | 1.2 | 0.801 | 0.719 | 0.651 | 0.678 | 0.736 | 0.702 | 0.576 | 0.562 | 0.475 | 0.565 | 0.473 | 0.477 | 0.81 | 0.684 | 0.645
22 | CN1CCN(c2cccc(Nc3nc4c(-c5ccc(S(C)(=O)=O)cc5)cccn4n3)c2)CC1 | 1.2 | 1.17 | 0.888 | 1.3 | 1.2 | 0.755 | 1.35 | 1.17 | 0.855 | 1.02 | 0.992 | 0.901 | 1.01 | 0.997 | 0.406 | 1.07 | 0.964 | 0.785
23 | N#CC(=C(/N)Sc1ccccc1N)/C(C#N)=C(\N)Sc1ccccc1N | 1.44 | 1.68 | 1.02 | 1.43 | 1.01 | 0.795 | 1.33 | 1.36 | 0.546 | 0.992 | 1 | 1.06 | 0.961 | 0.967 | 1.04 | 0.931 | 0.966 | 0.809
24 | CCCS(=O)(=O)Nc1ccc(F)c(C(=O)c2c[nH]c3ncc(-c4ccc(Cl)cc4)cc23)c1F [Vemurafenib (PLX4032)] | 1.22 | 1.08 | 1.23 | 1.5 | 1.14 | 1.13 | 0.881 | 1.05 | 1.04 | 1.08 | 1.05 | 0.988 | 1.06 | 0.993 | 0.977 | 1.03 | 1.05 | 1.03
25 | O=C(c1ccc(Nc2nccc(-c3cc4ccccc4s3)n2)cc1)N1CCC(N2CCCC2)CC1 [IKK-16 (IKK Inhibitor VII)] | 1.02 | 0.996 | -0.199 | 0.826 | 1.2 | -0.159 | 1.01 | 0.992 | -0.21 | 1.03 | 0.949 | 0.847 | 1.05 | 1 | 0.802 | 1.02 | 0.99 | 0.748
26 | Cc1nc(N)sc1-c1ccnc(Nc2ccc(N3CCOCC3)cc2)n1 | 1.42 | 1.37 | 0.721 | 0.772 | 1.06 | 0.537 | 1.39 | 1.08 | 0.689 | 1 | 0.901 | 0.954 | 0.991 | 0.916 | 0.965 | 1.02 | 0.934 | 0.865
27 | Cc1ccc(NC(=O)c2cccc(N(C)C)c2)cc1NC(=O)c1ccc(O)cc1 | 1.33 | 1.21 | 1.06 | 1.34 | 1.33 | 1.49 | 1.46 | 1.18 | 1.01 | 1.02 | 0.97 | 0.918 | 1.06 | 1.09 | 0.877 | 1.06 | 1.05 | 0.935

Entries of single compounds as entered above. Order of values: cell viability ([1]; 0.05 µM) | cell viability ([1]; 0.5 µM) | cell viability ([1]; 5 µM) | cell viability ([2]; 0.05 µM) | cell viability ([2]; 0.5 µM) | cell viability ([2]; 5 µM) | cell viability ([3]; 0.05 µM) | cell viability ([3]; 0.5 µM) | cell viability ([3]; 5 µM) | cell viability ([4]; 0.05 µM) | cell viability ([4]; 0.5 µM) | cell viability ([4]; 5 µM) | cell viability ([5]; 0.05 µM) | cell viability ([5]; 0.5 µM) | cell viability ([5]; 5 µM) | cell viability ([6]; 0.05 µM) | cell viability ([6]; 0.5 µM) | cell viability ([6]; 5 µM)
`O=C(c1ccc(Nc2nccc(-c3cc4ccccc4s3)n2)cc1)N1CCC(N2CCCC2)CC1` [IKK-16 (IKK Inhibitor VII)] in the list: 1.02 | 0.996 | -0.199 | 0.826 | 1.2 | -0.159 | 1.01 | 0.992 | -0.21 | 1.03 | 0.949 | 0.847 | 1.05 | 1 | 0.802 | 1.02 | 0.99 | 0.748
`C[C@]1(O)C[C@@H](c2nc(-c3ccc4ccc(-c5ccccc5)nc4c3)c3c(N)nccn32)C1` [OSI-906 (Linsitinib)] in the list: 1.46 | 1.41 | 1.03 | 1.29 | 1.2 | 0.699 | 1.24 | 1.35 | 0.735 | 0.922 | 1 | 0.982 | 0.927 | 0.985 | 0.9 | 0.987 | 0.891 | 0.91
